Binding signal data for 54 sequences are collected here from PMC7819943, “Rice protein-binding microarrays: a tool to detect cis-acting elements near promoter regions in rice”.

By UniProt entry, the sequences of proteins in these tests, tags left out.
UniProt Q0JBA9, entry or part of it: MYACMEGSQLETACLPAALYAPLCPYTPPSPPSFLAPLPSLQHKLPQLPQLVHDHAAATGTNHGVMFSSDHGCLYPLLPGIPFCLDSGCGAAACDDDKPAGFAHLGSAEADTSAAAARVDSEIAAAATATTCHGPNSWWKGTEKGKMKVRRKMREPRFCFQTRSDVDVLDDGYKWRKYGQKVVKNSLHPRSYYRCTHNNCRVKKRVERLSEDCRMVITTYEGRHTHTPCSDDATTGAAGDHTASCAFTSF

This is one part of the list.

In this assay the target is OsWRKY34 (Oryza sativa, UniProt Q0JBA9 1-250). Put plainly: protein-binding microarray (RPBM); PBS, 2% BSA, 51.3 ng/ul salmon testes DNA, 50 uM zinc acetate, 200 nM TF, 25 C, 1 h; high values mean tight binding. The note with it: protein: recombinant; tags: N-terminal polyhistidine and DsRed monomer fusion (pET32a); label: CyDye5-dUTP incorporated in the synthesized complementary strand; 3' TTTTT single-stranded linker to array surface; dsDNA, one strand shown. The gist of the method: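 Using Ni–NTA, transcription factors fused N-terminally to polyhistidine and DsRed were purified after expression in E. coli BL21-CodonPlus. These were incubated at 200 nM with a blocked, double-stranded custom Agilent array for 1 h at 25 °C in a buffer containing 50 µM zinc acetate, and the array was washed. The binding signal is per-feature fluorescence intensity (arbitrary units) on an Axon 4000B scanner.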
Regarding “GTGGGCCCCGCCCGTGTGATCGTGTCTCTGTTTCGTTTTCCGGAGTCACCTAGTGCAG”, the binding signal was 12100 fluorescence intensity (a.u.).
Regarding “CCGCCTCCGCCGACCCCGATCCCCATCCATCCCGCCAGCGCGGAGTCACCTAGTGCAG”, the binding signal is 9340 fluorescence intensity (a.u.).
Regarding “ACATGGCTGAACCTGCACTACTACTGTTAACAGTGTTATTCGGAGTCACCTAGTGCAG”, the binding signal is 10300 fluorescence intensity (a.u.).
Next, “ATTGGATGTTAAGTTGTGTTTTTGCTGTTTCATGGTTTTACGGAGTCACCTAGTGCAG”: 11400 fluorescence intensity (a.u.); “TCGAGCGCGCTCATTTCCCTTTTCCTTTTTCGTTTTTTCGCGGAGTCACCTAGTGCAG”: 10500 fluorescence intensity (a.u.).
The value for “TGAACACACGCACGCAAACCCTACCTCCATGAGTATCTTCCGGAGTCACCTAGTGCAG” was 10500 fluorescence intensity (a.u.).
On to “CCCGCCGCTGCCACCACACGCGCCCGCCGACCCGATGCCGCGGAGTCACCTAGTGCAG”, for which the binding signal is 8990 fluorescence intensity (a.u.).
“CCCCATTCACTTCCACAGACAAGTAGCATCACCTTTCAGTCGGAGTCACCTAGTGCAG”: the binding signal was 8710 fluorescence intensity (a.u.).
The value for “ACTACATGCAGACCTACTCCATCGTCCTCGGCCGCCACAGCGGAGTCACCTAGTGCAG” was 9580 fluorescence intensity (a.u.); that for “TACTATGAAATATTTCATCTGGTCTCAGGTTGTCACTTTTCGGAGTCACCTAGTGCAG” was 9880 fluorescence intensity (a.u.); that for “AATTTGTCCATTCCCTATGTCATCTCCTATAGAAACTCTACGGAGTCACCTAGTGCAG” was 11300 fluorescence intensity (a.u.).
For “TGTGTGTGTGCCGTACTGTTGAAGTCTGGCCGTTTCGCTGCGGAGTCACCTAGTGCAG”, the binding signal was 9210 fluorescence intensity (a.u.).
For the sequence “CTCGTTCTTTTCCGGTTCCTTCTTTTCCCCGACGCAGCGGCGGAGTCACCTAGTGCAG”, the binding signal was 8480 fluorescence intensity (a.u.).
Regarding “AAAAAGTCAACGGCGTTATACATTAAAATACGGAGGGAGTCGGAGTCACCTAGTGCAG”, the binding signal was 8640 fluorescence intensity (a.u.).
The value for “CTTCATCTCCAGCCTCTCTCTCTGCTTTGCTTGCTTATATCGGAGTCACCTAGTGCAG” was 9080 fluorescence intensity (a.u.).
Turning to “CAACCCCTGTACCGTGCGCACCGTCTTGTATGTAGCGCACCGGAGTCACCTAGTGCAG”, the binding signal was 9210 fluorescence intensity (a.u.).
Regarding “GGCAATACCGTTTTCCATGTTCGCAGCCTGCGTTCGGTGCCGGAGTCACCTAGTGCAG”, the binding signal was 9160 fluorescence intensity (a.u.).
Next, “GCCATGTAGGCGTCACGTCAGCTAAAACCGTCGTCCAAACCGGAGTCACCTAGTGCAG”: 9270 fluorescence intensity (a.u.); “CTGTCTTAAGTTGTTTAGTAGCTTCGATTCTGCCTTTAAACGGAGTCACCTAGTGCAG”: 8340 fluorescence intensity (a.u.); “GTGTCGCCTCGATCCCCTTCGAAACGGCTGAGCCCAAAGCCGGAGTCACCTAGTGCAG”: 8290 fluorescence intensity (a.u.).
The value for “TGATTGGTTGGCTGGTTGGTTAGTTGGCGCTTTTATCGTGCGGAGTCACCTAGTGCAG” was 15200 fluorescence intensity (a.u.).
The value for “ATTTTTCTGTCTGACCGAACGTCCACCCCTAGCCACTGTTCGGAGTCACCTAGTGCAG” was 10500 fluorescence intensity (a.u.).
In the case of “CCCCGGAAGGGGCGGGGAGGGGAGGGCGGCAGCGGCGCCGCGGAGTCACCTAGTGCAG”, the binding signal is 18500 fluorescence intensity (a.u.).
As to “AATGCGATCCGACGCGCGCCACCACCACCTCCTCCTCCGACGGAGTCACCTAGTGCAG”, the binding signal is 8070 fluorescence intensity (a.u.).
Next, “TGCCGATTGATCTTTTATCCTTTGGGGCATATGCTCGAGTCGGAGTCACCTAGTGCAG”: 8360 fluorescence intensity (a.u.); “CCTCATTTCCTTGTTGCAGTCAGTCTTGGCCCTCAAATCACGGAGTCACCTAGTGCAG”: 12800 fluorescence intensity (a.u.); “TGATACCGTTGACTTTTCACATAACTTGGTCGTTCGTTTTCGGAGTCACCTAGTGCAG”: 34100 fluorescence intensity (a.u.).
Turning to “ACCCGCCCACCGGCCTGGCCACACACCGCCGCCACGCTGGCGGAGTCACCTAGTGCAG”, the binding signal was 9290 fluorescence intensity (a.u.).
The value for “GAGAGTGTTTGTATTTCTGTTTTCAGGTCCAAGGTAGCGACGGAGTCACCTAGTGCAG” was 11500 fluorescence intensity (a.u.); that for “ACCTTTCATTCTCAGGTTATAATTATATTATCATTTCTTTCGGAGTCACCTAGTGCAG” was 10300 fluorescence intensity (a.u.); that for “GTCAGTTTGTCCGCCCGCCGCCGCCGCCGCCGCCGCCGTCCGGAGTCACCTAGTGCAG” was 9620 fluorescence intensity (a.u.).
The value for “TCTTCGTGAGCATCCTTGTACCATTTGACTCTATAAAAAACGGAGTCACCTAGTGCAG” was 9830 fluorescence intensity (a.u.).
The value for “AACTTTTCCAACTTTACTCTCTCGCGCTAACACTTTTTAACGGAGTCACCTAGTGCAG” was 10500 fluorescence intensity (a.u.).
Take “CGAACGCGCCACTGCTTAGCTTACTCCCGCCTCACTATCTCGGAGTCACCTAGTGCAG”: the binding signal is 9750 fluorescence intensity (a.u.).
Next, “ATTTGCACCATTTGCACGTCTGCTGTGAAGAATCTGCCATCGGAGTCACCTAGTGCAG”: 8880 fluorescence intensity (a.u.); “ATTCCAAGCAGGTGGACCCGCGTGTCATCCCCACTCTACACGGAGTCACCTAGTGCAG”: 8110 fluorescence intensity (a.u.).
Next, “ACCGTCTGCGTCTGCATCCCGGCGGCCATGCCCTTCGCCGCGGAGTCACCTAGTGCAG”: 8240 fluorescence intensity (a.u.); “TCGAAGATGTCGTTATTGCGTTCTTTTCTGCTATTCCATACGGAGTCACCTAGTGCAG”: 8430 fluorescence intensity (a.u.).
Next, “TAATTGTTGTCTTATTTCTTCTTCTGCGCCGAATGCTCAACGGAGTCACCTAGTGCAG”: 8600 fluorescence intensity (a.u.).
Consider “GCTCAGGACACTAAAAAGCTTCTATCTTTGACTTGGAAGACGGAGTCACCTAGTGCAG”, for which the binding signal is 10500 fluorescence intensity (a.u.).
The value for “CTCTTCTTTCCATTGTTAACCTTCGATTGAACAATTAGGTCGGAGTCACCTAGTGCAG” was 8920 fluorescence intensity (a.u.); that for “TGCTTCTCTCTGTTTGTTGGTTGTTGCCCATATTATCATTCGGAGTCACCTAGTGCAG” was 9530 fluorescence intensity (a.u.); that for “CCCAGCTTTCCTCGCTAATGCATATTCCGTCCATGACCACCGGAGTCACCTAGTGCAG” was 8220 fluorescence intensity (a.u.).
Next, “CTGCCCACCCCGACCTCCATCCATGGCGTTCTCTCTCTCTCGGAGTCACCTAGTGCAG”: 9930 fluorescence intensity (a.u.).
In the case of “CATGGTTTCCAAGCCGACCAAGCAACCTCTGCCCGCGTTTCGGAGTCACCTAGTGCAG”, the binding signal was 8490 fluorescence intensity (a.u.).
Next, “GCCGCCGCCTCCTCTGTCTGCCGCCACCGCCGCCGCCGCCCGGAGTCACCTAGTGCAG”: 9520 fluorescence intensity (a.u.).
The value for “CTCTGCTTCTTGGTTTGAACACTCATGCTAGTTTTTTATTCGGAGTCACCTAGTGCAG” was 8220 fluorescence intensity (a.u.).
The value for “ACGTCTCCACCACCACCACCGGCCAAACGCCGACCTCATCCGGAGTCACCTAGTGCAG” was 9450 fluorescence intensity (a.u.); that for “CTCGGCCTCGGCCTCGAATTTCGTCTCCTCGCCCGCCGCTCGGAGTCACCTAGTGCAG” was 10700 fluorescence intensity (a.u.); that for “AATTTGGATACCCTGCAGAAGTACGTGAATTTTTACATTTCGGAGTCACCTAGTGCAG” was 8650 fluorescence intensity (a.u.).
“CAGGAACCAGTTTAGATGAGACTTTTGACTTTTTACTATTCGGAGTCACCTAGTGCAG”: the binding signal is 8700 fluorescence intensity (a.u.).
Next, “GGTGGGGAGGGAAGAGGAGGCGGGCCTCCAATTTCGCCTCCGGAGTCACCTAGTGCAG”: 9910 fluorescence intensity (a.u.).
Next, “CCGCGCCACCAAACACTCGAGCTCGCCGGACTTAGGGTTTCGGAGTCACCTAGTGCAG”: 8280 fluorescence intensity (a.u.); “AATCACCTCCCTTATCTTACCTGCATGACAAATGCCTCGACGGAGTCACCTAGTGCAG”: 8590 fluorescence intensity (a.u.).
